Results are given in words; binding and its absence hold for the method and conditions named. Binding seen in cells or lysates may run through a third protein. Some binding calls cover weakened binding; strength is not graded here.
Legend:
Assay in all cases: proximity ligation; Duolink PLA on fixed, permeabilized L6-GLUT4myc myoblasts; endogenous proteins detected with pairs of primary antibodies; cells untreated or treated with 100 nM insulin (30 min) or 1 uM ionomycin (10 min), with or without the exocyst inhibitor ES2; signal-to-nuclei ratios
[1] = biological target: FFA translocase CD36 (cluster of differentiation 36) (rat (endogenous in L6-GLUT4myc)) (UniProt Q07969)
[2] = biological target: exocyst subunit EXOC5 (rat (endogenous in L6-GLUT4myc)) (UniProt P97878)
[3] = biological target: exocyst subunit EXOC7 (rat (endogenous in L6-GLUT4myc)) (UniProt O54922)

Sequences of proteins named here, by UniProt entry; tags and fusion partners are left off.
UniProt Q07969: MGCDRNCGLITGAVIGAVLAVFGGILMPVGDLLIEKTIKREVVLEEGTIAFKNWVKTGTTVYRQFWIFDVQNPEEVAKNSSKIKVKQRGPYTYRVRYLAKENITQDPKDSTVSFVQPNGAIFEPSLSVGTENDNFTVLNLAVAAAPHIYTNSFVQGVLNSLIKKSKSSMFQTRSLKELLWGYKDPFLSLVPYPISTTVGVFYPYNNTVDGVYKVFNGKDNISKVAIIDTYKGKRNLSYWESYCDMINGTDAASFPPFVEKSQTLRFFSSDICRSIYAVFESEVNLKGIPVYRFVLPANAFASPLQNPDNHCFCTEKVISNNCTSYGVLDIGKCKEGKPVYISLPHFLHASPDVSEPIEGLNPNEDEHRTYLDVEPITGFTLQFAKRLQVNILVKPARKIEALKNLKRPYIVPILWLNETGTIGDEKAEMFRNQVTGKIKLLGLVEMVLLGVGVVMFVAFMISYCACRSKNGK
UniProt P97878: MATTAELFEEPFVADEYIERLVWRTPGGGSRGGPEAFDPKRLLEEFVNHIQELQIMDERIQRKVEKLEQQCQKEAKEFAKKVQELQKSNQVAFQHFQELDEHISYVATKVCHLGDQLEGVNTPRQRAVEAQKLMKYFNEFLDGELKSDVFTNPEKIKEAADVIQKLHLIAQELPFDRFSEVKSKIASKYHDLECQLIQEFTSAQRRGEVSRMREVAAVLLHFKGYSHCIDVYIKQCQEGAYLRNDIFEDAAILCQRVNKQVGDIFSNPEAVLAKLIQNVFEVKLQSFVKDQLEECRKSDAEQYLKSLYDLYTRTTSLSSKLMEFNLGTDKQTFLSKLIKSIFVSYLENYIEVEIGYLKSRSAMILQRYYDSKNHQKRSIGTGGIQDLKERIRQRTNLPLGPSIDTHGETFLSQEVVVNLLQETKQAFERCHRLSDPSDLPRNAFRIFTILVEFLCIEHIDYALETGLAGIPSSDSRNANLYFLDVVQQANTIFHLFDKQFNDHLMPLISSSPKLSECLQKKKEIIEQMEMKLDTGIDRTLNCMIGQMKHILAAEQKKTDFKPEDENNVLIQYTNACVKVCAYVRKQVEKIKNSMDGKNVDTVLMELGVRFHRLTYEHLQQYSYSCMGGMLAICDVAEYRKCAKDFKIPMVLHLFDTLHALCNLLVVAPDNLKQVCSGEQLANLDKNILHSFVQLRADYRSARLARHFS
UniProt O54922: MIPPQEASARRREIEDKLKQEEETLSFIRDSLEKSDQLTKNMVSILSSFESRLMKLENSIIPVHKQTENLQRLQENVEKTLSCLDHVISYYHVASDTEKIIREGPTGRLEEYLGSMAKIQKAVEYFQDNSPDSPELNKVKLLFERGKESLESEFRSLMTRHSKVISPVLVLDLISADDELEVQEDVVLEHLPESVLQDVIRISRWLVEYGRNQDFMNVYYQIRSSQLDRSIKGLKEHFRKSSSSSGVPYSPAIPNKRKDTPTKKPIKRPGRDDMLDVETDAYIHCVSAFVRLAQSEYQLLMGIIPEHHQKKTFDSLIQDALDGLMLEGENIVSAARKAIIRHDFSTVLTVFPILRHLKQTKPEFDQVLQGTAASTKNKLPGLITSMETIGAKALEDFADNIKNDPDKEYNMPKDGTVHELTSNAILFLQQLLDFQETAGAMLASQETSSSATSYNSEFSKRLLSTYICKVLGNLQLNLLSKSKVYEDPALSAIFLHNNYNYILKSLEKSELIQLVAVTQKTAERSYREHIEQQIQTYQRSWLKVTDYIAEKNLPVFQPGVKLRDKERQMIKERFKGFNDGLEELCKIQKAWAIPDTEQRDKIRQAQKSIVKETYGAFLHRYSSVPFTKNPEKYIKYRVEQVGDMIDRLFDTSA
UniProt P61107: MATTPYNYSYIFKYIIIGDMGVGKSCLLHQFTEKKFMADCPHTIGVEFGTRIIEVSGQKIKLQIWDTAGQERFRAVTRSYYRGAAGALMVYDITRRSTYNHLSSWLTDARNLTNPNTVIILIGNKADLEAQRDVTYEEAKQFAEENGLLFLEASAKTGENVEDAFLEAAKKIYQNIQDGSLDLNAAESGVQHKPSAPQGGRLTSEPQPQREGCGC
UniProt P35280: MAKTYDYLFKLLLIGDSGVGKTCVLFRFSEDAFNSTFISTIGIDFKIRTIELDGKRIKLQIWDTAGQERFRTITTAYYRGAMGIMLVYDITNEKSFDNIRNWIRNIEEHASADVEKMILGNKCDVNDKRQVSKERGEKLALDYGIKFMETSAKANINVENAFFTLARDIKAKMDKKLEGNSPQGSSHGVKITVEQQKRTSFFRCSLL

Row | binding [1] | binding [2] | binding [3] | Substance
1 | binds | binds |  | Rab14 (from UniProt P61107 1-215)
2 | binds |  | binds | exocyst subunit EXOC5 (from UniProt P97878 1-708)
3 | binds | binds |  | small GTPase Rab8a (from UniProt P35280 1-207)

From article PMC9368548
